According to PubChem BioAssay AID1487 (National Center for Advancing Translational Sciences (NCATS), 2009):
The other results are listed elsewhere or left out. These are further read-outs of the screen, such as a control signal, another cell line or another target. No call is given for them. The list favours compounds with an active or inconclusive main result. Words in brackets tell the shape of the fitted curve; partial curves, single points and poor fits give uncertain potencies.

Test: qHTS Assay for Modulators of Lamin A Splicing
Settings: HeLa LMNA splicing GFP/RFP minigene ratio, 48 h
Summary of the method: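 Read-out is the ratio of GFP to DsRed2 object intensity, acquired by 488 nm laser-scanning cytometry on HeLa lamin A-EGFP minigene reporter cells. Compound incubation 48 hrs at 37 °C in Opti-MEM with 2% FBS; DMSO 0.5% final.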

[1] = measured here: RFP viability control channel
[2] = measured here: GFP splicing reporter channel

SMILES | AC50 [1] | AC50 [2]
CC(NC(=O)c1ccc2nc(CCc3ccccc3)oc2c1)c1ccccc1 (stereo not given) | 0.398 µM [falling, full curve, poor fit] | 
COc1ccc(N2CCN(C(=O)CSc3ccccc3)CC2)cc1 | 20 µM [rising, single point] | 15.8 µM [rising, single point]
Cc1onc(-c2ccccc2)c1C(=O)Nc1ccc(-c2nnc3n2CCCCC3)cc1 | 11.2 µM [rising, single point] | 
COc1ccc(/C=N/NC(=O)c2cccc([N+](=O)[O-])c2)cc1OS(=O)(=O)c1ccccc1 | 10 µM [rising, partial curve, poor fit] | 0.891 µM [rising, full curve, poor fit]
COc1ccc(NC(=O)CN2CCN(CC(=O)Nc3ccccc3Cl)CC2)c(OC)c1 | 35.5 µM [rising, single point] | 
Cc1ccc(C)c(NC(=O)CCc2c(C)n(C)c3cc(-c4ccccc4C)nn3c2=O)c1 | 0.355 µM [falling, full curve, poor fit] | 0.316 µM [falling, partial curve, poor fit]
COc1ccc2oc3ccc(OC)cc3c(=O)c2c1 |  | 0.447 µM [rising, full curve, poor fit]
Cc1[nH]nc(-c2ccc(OCc3cnn(-c4ccccc4)c3)c(C)c2O)c1Oc1ccccc1 |  | 0.0794 µM [rising, full curve]
C=CCNc1nc(-c2c(C)nc3sccn23)cs1 | 14.1 µM [rising, partial curve] | 12.6 µM [rising, single point]
COc1ccc(NC(=O)CN(C)S(=O)(=O)c2ccc3[nH]c4c(c3c2)CCCC4)cc1OC |  | 10 µM [falling, partial curve, poor fit]
O=C(Nc1ccc(N2CCCC2)c(Cl)c1)c1ccco1 | 15.8 µM [rising, single point] | 10 µM [rising, partial curve]
O=C(CCC1CCCC1)N1CCN(C(=O)COc2ccccc2)CC1 | 35.5 µM [rising, single point] | 
COc1ccc(N=C2SC(C(=O)N3CCN(c4ccc([N+](=O)[O-])cc4)CC3)CC(=O)N2C)cc1 (stereo not given) | 0.0112 µM [falling, full curve] | 0.01 µM [falling, full curve, poor fit]
COc1cccc(C(=O)Nc2sc3c(c2C#N)CCN(C(C)=O)C3)c1 |  | 3.55 µM [rising, partial curve, poor fit]
Cc1ccc(S(=O)(=O)NC(C)(C)CSc2ccccn2)cc1 | 3.16 µM [rising, full curve] | 
COc1cccc(-c2csc(N3CCN(C(=S)Nc4ccccc4C)CC3)n2)c1 | 11.2 µM [falling, partial curve, poor fit] | 7.94 µM [falling, partial curve, poor fit]
COc1ccccc1CNc1ncnc2ccc(-c3cccnc3)cc12 | 14.1 µM [falling, partial curve] | 20 µM [falling, single point]
CC1(OC(=O)C2CCCC2)C(=O)C=C2C=C(c3ccsc3)N(C3CC3)C=C2C1=O (stereo not given) | 1.41 µM [rising, partial curve, poor fit] | 0.000794 µM [rising, full curve, poor fit]
Cc1sc(N)c(C(=O)c2ccccc2Cl)c1C | 0.0631 µM [falling, full curve, poor fit] | 20 µM [falling, partial curve]
Cc1ccccc1-n1nnnc1SCC(=O)Nc1ccc(S(=O)(=O)N2CCCC2)cc1 | 25.1 µM [rising, single point] | 
CN(C)S(=O)(=O)Nc1ccc(-c2cn3ccsc3n2)cc1 |  | 0.316 µM [rising, single point]
CC1CCN(c2oc(-c3ccccc3F)nc2C#N)CC1 | 12.6 µM [rising, partial curve, poor fit] | 
CCN(CC)S(=O)(=O)c1ccc(O)c(NC(=O)CN2CCc3ccccc3C2)c1 |  | 0.0891 µM [falling, full curve, poor fit]
COc1cc(/C=N/NC(=O)c2sc(N)c(C#N)c2C)cc(Br)c1O | 35.5 µM [rising, single point] | 31.6 µM [rising, single point]
CCOC(=O)C1=C(c2ccccc2)NC(SCC(=O)Nc2cccc(C)c2)=C(C#N)C1c1ccco1 (stereo not given) | 35.5 µM [rising, single point] | 
c1cncc(CNc2ncnc3sccc23)c1 | 11.2 µM [falling, single point] | 
COc1ccc([N+](=O)[O-])cc1NC(=O)CSc1ncccn1 | 5.62 µM [falling, partial curve, poor fit] | 6.31 µM [falling, full curve, poor fit]

Given in CSV form: part of the list above.
SMILES,AC50 [1],AC50 [2]
COc1ccc(NC(=O)CN2CCN(CC(=O)Nc3ccccc3Cl)CC2)c(OC)c1,"35.5 µM [rising, single point]",
COc1cccc(-c2csc(N3CCN(C(=S)Nc4ccccc4C)CC3)n2)c1,"11.2 µM [falling, partial curve, poor fit]","7.94 µM [falling, partial curve, poor fit]"

Additional compounds follow:

SMILES | AC50 [1] | AC50 [2]
COc1ccccc1-c1nc(C#N)c(N2CCN(c3ccccc3)CC2)o1 | 20 µM [rising, partial curve, poor fit] | 
CCCN=Cc1ccc(O)cc1 |  | 8.91 µM [falling, partial curve, poor fit]
O=C(CNS(=O)(=O)c1ccccc1)Nc1ccc2c(c1)OCO2 |  | 0.0794 µM [rising, full curve, poor fit]
COCCNC(=O)c1ccc2nc(CCc3ccccc3)oc2c1 |  | 0.1 µM [rising, full curve, poor fit]
COc1ccccc1-c1cc(C(=O)N/N=C/c2cccs2)c2ccccc2n1 | 11.2 µM [rising, partial curve] | 
CC(C)(C)n1nnnc1C(c1ccc(Cl)cc1)N(Cc1cccnc1)Cc1ccco1 (stereo not given) | 31.6 µM [rising, single point] | 17.8 µM [rising, single point]
COc1ccc(NC(=O)c2oc3ccc(S(=O)(=O)N(C)C4CCCCC4)cc3c2C)cc1Cl |  | 8.91 µM [falling, full curve, poor fit]
CCc1nnc(NC(=O)c2ccc(S(=O)(=O)NC3CCCCC3)cc2)s1 | 4.47 µM [rising, full curve] | 
CCOc1ccc2nc(NS(=O)(=O)Cc3ccccc3)sc2c1 |  | 0.501 µM [falling, full curve, poor fit]
O=[N+]([O-])c1nn(-c2ccc3c(c2)OCCO3)n(O)c1=NC1CCCCC1 | 15.8 µM [rising, single point] | 28.2 µM [rising, single point]
COC(=O)/C=C1/C(=O)N/C(=N\c2nc(C)cc(C)n2)N1c1ccc(OC)cc1 | 7.94 µM [rising, partial curve] | 
CCCCNc1nc2c(c(=O)n(C)c(=O)n2C)n1Cc1cccc(OC)c1 | 7.94 µM [rising, partial curve] | 3.55 µM [rising, full curve]
COc1ccc(N2CCN(C(=O)CN(Cc3ccc(Cl)cc3)S(C)(=O)=O)CC2)cc1 | 35.5 µM [rising, single point] | 
Cc1ccccc1Nc1nc(N)nc(CSc2nc3ccccc3s2)n1 | 12.6 µM [rising, partial curve, poor fit] | 11.2 µM [rising, single point]
Cc1ccc(C2(C)CC(C)(C)N(C(=O)CSc3nnc(C)s3)c3ccccc32)cc1 (stereo not given) | 14.1 µM [rising, single point] | 
Nc1c(NCCc2ccccc2)c2ccccc2oc1=O |  | 0.00447 µM [falling, full curve, poor fit]
Cc1cc(Br)c(Cl)cc1NC(=O)CN1C(=O)C2C3CC(c4ccccc4)C(C3)C2C1=O (stereo not given) | 14.1 µM [falling, single point] | 22.4 µM [falling, single point]
Cn1c(=O)c2c(SCC(=O)NCc3ccco3)nc(-c3ccccc3F)nc2n(C)c1=O | 3.55 µM [falling, single point] | 4.47 µM [falling, full curve]
Cc1oc(-c2ccc(Cl)cc2)nc1CN1CCCC(C(=O)N2CCN(C(=O)c3ccco3)CC2)C1 (stereo not given) | 11.2 µM [rising, partial curve] | 
Cc1cc(Nc2nnnn2-c2ccccc2)n(-c2ccc(Cl)cc2)n1 | 20 µM [rising, partial curve] | 
CC(=O)c1ccc(N2CCN(c3ccc(S(=O)(=O)NCCCN(C)C)cc3[N+](=O)[O-])CC2)cc1 |  | 25.1 µM [falling, single point]
CC1CCN(c2nc3ccccc3nc2C(C#N)C(=O)OC2CCCCC2)CC1 (stereo not given) | 14.1 µM [falling, single point] | 35.5 µM [falling, single point]
O=C(CSCc1ccc(F)cc1)N1CCN(c2ccccc2)CC1 | 15.8 µM [rising, single point] | 11.2 µM [rising, single point]
O=C1c2ccsc2SCCN1Cc1ccc(Cl)cc1Cl | 20 µM [rising, single point] | 12.6 µM [rising, single point]
COCCN(CCOC)S(=O)(=O)c1ccc(C(=O)Nc2nnc(COC)o2)cc1 |  | 0.00891 µM [rising, full curve, poor fit]
Cc1ccnc(N2CCC(C(=O)Nc3cccc(C(F)(F)F)c3)CC2)n1 | 14.1 µM [rising, single point] | 
COC(=O)c1c(C(=O)OC)c(-c2ccc(Cl)c(Cl)c2)n2c1CCC2 | 12.6 µM [rising, partial curve, poor fit] | 
